In patent US8841125B2, “Cancer tissue-derived cell mass and a process for preparing same” (Renaissance Energy Investment Co., Ltd., priority 2009, dated 2014):
“Also recorded” adds a separate entry of the source. For at least one compound, name, drawing or mass did not settle the structure.

System: cell masses derived from the cancer tissues from patients with breast cancers
Experiment: Hormone sensitivity test of cell mass derived from breast cancer tissue
Format: cell-based, human
Conditions: cell masses from a plurality of breast cancer patients; medium conditions as in Example 8; FIG. 8

How did the “proliferation of the cell mass in presence or absence of estradiol” value turn out when `C[C@]12CC[C@@H]3c4ccc(O)cc4CC[C@H]3[C@@H]1CC[C@@H]2O` [estradiol] was run?
The value was “proliferation is promoted; also recorded: does not respond”.
